According to publication PMC7957265:
No constants are given. Whether binding was seen depends on the method and setting. Binding seen in cells or lysates may run through a third protein. Some results given as binding are weak or reduced against the parent protein; the word gives no strength. Where a sequence is shown, tags or fusion partners need not be part of it.

The chains behind the UniProt entries cited, without tags or fusion partners.
UniProt Q68G74: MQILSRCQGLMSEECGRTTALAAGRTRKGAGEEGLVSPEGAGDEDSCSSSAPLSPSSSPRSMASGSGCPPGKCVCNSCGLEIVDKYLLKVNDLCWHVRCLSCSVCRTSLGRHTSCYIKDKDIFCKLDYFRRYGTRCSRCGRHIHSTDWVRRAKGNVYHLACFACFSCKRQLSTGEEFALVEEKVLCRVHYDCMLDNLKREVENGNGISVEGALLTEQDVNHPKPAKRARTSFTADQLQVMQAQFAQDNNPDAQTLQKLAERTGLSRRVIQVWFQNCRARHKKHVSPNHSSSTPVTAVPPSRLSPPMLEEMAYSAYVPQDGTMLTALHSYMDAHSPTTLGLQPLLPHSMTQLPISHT

Target: T1, Suv39h1, histone-lysine N-methyltransferase (human (endogenous in DPSCs)) (UniProt O43463)
T1 sequence: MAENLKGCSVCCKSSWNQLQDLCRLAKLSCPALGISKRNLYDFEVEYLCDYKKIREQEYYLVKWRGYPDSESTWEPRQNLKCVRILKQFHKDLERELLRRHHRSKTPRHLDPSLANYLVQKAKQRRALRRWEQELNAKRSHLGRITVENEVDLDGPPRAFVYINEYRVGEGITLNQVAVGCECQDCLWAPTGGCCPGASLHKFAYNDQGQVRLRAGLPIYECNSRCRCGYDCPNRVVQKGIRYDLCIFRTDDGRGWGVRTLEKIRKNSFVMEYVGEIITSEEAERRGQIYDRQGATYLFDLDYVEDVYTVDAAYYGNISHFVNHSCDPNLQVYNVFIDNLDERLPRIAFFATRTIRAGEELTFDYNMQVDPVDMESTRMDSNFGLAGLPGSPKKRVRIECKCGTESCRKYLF
Assay: co-IP; nuclear lysates of DPSCs, about 1 mg protein extract with 10 ug anti-Suv39h1 monoclonal antibody or IgG control, 12 hours at 4°C, protein A Sepharose, three washes with ice-cold lysis buffer, Western blot

LIM-homeobox 8 (Lhx8) (from UniProt Q68G74 1-356)
binding: binds
